Assay results taken from article PMC7660911.
No constants are given. Whether binding was seen depends on the method and setting. Binding seen in cells or lysates may run through a third protein. A yes stands for co-enrichment or nearness to the bait. Other partners may have been found. For part of these data: A no says only that the protein was not detected with the bait.

The chains behind the UniProt entries cited, without tags or fusion partners. Where a name states a change or a piece, a line headed by the entry shows the natural chain unless it says otherwise.
UniProt P40337: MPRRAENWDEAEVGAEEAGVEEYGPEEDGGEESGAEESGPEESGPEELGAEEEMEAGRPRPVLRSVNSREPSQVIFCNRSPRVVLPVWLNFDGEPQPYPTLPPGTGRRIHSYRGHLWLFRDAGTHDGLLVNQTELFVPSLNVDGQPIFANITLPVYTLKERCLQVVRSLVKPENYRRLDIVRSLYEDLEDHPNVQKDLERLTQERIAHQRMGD
UniProt P06709: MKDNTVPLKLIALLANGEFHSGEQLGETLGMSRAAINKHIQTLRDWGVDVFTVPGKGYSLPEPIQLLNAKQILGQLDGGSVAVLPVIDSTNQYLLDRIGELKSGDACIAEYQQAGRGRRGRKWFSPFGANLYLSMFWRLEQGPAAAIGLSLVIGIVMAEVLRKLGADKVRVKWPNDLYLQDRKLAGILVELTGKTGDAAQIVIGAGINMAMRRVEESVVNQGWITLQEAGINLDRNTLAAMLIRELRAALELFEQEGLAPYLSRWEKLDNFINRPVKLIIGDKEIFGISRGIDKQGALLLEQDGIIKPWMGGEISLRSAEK
UniProt P48643: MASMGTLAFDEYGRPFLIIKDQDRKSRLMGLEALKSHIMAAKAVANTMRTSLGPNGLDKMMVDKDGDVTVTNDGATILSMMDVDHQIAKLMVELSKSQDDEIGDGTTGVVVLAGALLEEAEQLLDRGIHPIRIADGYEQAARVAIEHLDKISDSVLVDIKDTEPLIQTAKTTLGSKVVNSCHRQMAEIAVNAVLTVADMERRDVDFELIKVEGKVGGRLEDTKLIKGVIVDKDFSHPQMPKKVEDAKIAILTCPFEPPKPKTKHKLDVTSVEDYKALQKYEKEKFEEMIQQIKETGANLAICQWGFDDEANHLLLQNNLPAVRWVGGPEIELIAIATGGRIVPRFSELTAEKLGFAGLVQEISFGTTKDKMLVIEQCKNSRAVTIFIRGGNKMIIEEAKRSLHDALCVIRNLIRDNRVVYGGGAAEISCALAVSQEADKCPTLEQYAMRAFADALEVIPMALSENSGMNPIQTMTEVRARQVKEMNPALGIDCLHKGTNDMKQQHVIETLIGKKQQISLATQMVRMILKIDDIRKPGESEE
UniProt P50990: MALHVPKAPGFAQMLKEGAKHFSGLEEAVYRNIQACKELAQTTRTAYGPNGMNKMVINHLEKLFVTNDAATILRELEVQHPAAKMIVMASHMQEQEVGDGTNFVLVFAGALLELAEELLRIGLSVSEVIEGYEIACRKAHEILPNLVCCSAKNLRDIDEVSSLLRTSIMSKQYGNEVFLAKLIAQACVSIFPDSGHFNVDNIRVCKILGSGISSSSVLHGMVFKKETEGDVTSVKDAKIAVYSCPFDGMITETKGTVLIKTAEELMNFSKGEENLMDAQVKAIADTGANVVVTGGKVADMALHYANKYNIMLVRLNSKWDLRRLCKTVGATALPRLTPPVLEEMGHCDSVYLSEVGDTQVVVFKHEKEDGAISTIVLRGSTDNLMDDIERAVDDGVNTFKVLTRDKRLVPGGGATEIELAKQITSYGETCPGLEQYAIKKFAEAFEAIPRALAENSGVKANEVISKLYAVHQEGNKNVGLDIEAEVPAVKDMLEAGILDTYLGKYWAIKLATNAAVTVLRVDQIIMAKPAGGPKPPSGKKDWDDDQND
UniProt Q99471: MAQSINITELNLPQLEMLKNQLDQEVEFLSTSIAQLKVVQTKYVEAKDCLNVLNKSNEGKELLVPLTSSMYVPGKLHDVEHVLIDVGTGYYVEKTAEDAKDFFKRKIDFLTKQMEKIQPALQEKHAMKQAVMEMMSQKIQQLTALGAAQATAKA
UniProt O74752: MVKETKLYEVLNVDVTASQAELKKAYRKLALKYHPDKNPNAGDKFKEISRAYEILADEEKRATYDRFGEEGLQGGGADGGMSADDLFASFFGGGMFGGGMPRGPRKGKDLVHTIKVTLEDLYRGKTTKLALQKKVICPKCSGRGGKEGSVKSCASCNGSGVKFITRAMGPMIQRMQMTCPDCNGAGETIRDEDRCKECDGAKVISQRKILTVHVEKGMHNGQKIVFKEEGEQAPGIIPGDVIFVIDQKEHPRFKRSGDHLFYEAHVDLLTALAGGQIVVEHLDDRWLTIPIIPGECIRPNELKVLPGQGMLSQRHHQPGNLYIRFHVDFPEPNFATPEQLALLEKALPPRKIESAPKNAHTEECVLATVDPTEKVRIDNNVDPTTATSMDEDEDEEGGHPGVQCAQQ
UniProt P28482: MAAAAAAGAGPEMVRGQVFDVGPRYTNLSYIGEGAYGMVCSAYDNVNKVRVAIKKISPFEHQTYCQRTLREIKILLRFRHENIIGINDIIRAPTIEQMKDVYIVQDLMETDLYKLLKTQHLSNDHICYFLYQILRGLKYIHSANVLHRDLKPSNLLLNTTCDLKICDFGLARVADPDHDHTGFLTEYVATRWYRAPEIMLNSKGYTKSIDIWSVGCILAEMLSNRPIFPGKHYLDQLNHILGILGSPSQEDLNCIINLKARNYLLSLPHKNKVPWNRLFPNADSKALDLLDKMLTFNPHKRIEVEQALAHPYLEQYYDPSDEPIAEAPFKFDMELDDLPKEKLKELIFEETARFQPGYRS
UniProt P04406: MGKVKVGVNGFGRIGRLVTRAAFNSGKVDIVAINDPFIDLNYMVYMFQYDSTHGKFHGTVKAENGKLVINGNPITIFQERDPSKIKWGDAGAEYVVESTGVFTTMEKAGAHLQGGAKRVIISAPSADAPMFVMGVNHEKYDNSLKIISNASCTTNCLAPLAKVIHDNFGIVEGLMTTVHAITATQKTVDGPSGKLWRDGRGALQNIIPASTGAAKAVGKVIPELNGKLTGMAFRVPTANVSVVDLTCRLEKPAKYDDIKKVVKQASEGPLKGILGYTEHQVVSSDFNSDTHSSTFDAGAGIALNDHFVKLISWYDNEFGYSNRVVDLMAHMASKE
UniProt O59855: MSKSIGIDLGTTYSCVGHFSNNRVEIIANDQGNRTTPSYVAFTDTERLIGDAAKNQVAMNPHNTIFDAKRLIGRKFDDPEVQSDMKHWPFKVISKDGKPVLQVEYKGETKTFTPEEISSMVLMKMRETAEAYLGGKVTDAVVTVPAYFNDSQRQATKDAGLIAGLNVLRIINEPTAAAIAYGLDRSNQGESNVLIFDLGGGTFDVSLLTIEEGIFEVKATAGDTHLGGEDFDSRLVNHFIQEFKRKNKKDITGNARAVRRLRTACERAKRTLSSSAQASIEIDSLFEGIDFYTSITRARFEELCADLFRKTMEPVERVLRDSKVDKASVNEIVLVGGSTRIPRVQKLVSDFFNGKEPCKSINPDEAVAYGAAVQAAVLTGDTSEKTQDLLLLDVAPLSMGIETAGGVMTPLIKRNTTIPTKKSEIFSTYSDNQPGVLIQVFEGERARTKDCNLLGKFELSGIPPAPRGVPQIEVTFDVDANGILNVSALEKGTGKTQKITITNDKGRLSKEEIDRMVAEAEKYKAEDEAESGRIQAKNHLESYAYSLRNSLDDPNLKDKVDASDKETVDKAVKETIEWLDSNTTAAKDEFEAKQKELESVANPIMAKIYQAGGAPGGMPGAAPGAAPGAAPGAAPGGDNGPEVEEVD
UniProt P27361: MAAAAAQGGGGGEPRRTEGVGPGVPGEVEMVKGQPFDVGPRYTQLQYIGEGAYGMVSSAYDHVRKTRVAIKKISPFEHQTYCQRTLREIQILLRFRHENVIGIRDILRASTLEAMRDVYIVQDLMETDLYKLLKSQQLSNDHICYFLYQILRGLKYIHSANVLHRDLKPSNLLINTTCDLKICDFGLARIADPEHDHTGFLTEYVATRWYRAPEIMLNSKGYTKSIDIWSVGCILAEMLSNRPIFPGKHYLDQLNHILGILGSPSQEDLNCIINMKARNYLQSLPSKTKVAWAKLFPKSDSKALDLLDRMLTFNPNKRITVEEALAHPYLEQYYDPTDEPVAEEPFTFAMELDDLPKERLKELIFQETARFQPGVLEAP
UniProt Q10265: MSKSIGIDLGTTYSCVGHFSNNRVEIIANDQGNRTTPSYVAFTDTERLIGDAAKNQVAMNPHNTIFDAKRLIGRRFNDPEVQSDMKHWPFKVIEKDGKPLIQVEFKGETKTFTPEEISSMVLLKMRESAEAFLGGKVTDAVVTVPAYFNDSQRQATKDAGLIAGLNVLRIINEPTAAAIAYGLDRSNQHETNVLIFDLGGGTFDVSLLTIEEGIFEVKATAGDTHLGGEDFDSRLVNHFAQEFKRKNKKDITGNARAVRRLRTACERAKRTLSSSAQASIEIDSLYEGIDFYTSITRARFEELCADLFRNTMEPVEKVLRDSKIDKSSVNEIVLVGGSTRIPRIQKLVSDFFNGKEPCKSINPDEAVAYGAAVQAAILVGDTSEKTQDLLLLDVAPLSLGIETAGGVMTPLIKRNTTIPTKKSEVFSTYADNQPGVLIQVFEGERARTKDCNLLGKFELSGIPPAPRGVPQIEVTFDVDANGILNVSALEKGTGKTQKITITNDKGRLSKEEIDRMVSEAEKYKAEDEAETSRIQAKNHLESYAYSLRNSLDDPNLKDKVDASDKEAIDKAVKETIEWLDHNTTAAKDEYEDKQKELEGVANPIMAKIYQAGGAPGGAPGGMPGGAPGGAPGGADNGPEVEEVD
UniProt O60925: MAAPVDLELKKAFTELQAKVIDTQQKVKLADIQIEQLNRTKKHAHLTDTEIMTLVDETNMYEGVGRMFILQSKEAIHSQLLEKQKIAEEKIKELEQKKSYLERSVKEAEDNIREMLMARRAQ
UniProt Q99832: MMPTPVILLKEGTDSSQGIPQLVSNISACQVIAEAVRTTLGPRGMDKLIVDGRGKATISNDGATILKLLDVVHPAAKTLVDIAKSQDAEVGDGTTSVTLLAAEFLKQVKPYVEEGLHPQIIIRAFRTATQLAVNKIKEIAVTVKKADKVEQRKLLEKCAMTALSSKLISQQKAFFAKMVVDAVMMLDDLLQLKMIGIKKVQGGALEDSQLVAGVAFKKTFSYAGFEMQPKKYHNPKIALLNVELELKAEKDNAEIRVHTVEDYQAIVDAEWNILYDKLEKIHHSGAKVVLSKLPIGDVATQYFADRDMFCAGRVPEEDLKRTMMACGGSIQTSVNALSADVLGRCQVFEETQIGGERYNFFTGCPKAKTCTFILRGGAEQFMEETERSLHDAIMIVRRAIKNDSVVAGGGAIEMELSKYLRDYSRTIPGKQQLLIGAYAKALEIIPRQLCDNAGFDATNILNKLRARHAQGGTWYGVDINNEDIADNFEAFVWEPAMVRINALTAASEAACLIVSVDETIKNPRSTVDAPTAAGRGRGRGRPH
UniProt Q9UHV9: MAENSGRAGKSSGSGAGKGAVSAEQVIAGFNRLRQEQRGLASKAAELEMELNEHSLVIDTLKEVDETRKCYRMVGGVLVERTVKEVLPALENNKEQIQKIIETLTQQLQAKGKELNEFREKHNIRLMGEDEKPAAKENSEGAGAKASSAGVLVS
UniProt O15212: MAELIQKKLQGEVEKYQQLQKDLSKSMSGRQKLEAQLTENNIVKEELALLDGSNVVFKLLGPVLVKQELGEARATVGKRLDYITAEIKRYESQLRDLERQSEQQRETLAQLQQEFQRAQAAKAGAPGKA
UniProt Q9NQP4: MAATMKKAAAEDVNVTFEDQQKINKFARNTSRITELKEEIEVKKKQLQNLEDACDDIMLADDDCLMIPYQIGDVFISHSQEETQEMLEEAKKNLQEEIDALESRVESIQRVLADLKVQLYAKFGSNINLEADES

Assays:
[1] = biological target: pVHL172-BirA(R118G)-HA fusion protein (human) (UniProt P40337); assay: proximity labelling; BioID with mass spectrometry: VHL-BirA(R118G)-HA baits expressed in HEK293 cells, biotin in the medium from 4 to 24 h after transfection; RIPA lysate; biotinylated proteins captured on streptavidin-Sepharose beads; on-bead digestion, LC-MS/MS, LFQ intensities
[2] = biological target: pVHL213-BirA(R118G)-HA fusion protein (human) (UniProt P40337); assay: as above
BirA(R118G)-HA [3] = biological target: BirA(R118G)-HA (UniProt P06709); assay: proximity labelling; BioID with Western blot in 786-O cells: VHL-BirA(R118G)-HA baits or BirA alone, streptavidin-Sepharose capture; bound fraction blotted (S1 Fig)
[4] = biological target: pVHL213-BirA(R118G)-HA fusion protein (human) (UniProt P40337); assay: as above
[5] = biological target: pVHL213-BirA(R118G)-HA fusion protein (human) (UniProt P40337); assay: proximity labelling; BioID with truncated VHL-BirA constructs in HeLa and 786-O cells; blots quantified as biotinylated prefoldin / pVHL expression level, full-length VHL213-BirA set as 1 (Fig 1C)
BirA(R118G)-HA [6] = biological target: BirA(R118G)-HA (UniProt P06709); assay: proximity labelling; BioID with Western blot: VHL-BirA(R118G)-HA baits or BirA alone expressed in HEK293 and HeLa cells, biotin in the medium; RIPA lysate; streptavidin-Sepharose capture; bound fraction blotted
[7] = biological target: VHL213mut-BirA(R118G)-HA fusion protein (human) (UniProt P40337); assay: as above
[8] = biological target: pVHL213-BirA(R118G)-HA fusion protein (human) (UniProt P40337); assay: as above
[9] = biological target: GFP-pVHL213 expressed in fission yeast (human) (UniProt P40337); assay: affinity purification with mass spectrometry; GFP-Trap MA beads on whole cell lysates of fission yeast expressing GFP-pVHL213 or GFP (20 mM Tris HCl pH 7.5, 150 mM NaCl, 2 mM EDTA, 0.5% Nonidet P40), 90 min at 4 C; on-bead digestion, LC-MS/MS
[10] = biological target: pVHL172-BirA(R118G)-HA fusion protein (human) (UniProt P40337); assay: proximity labelling; BioID with Western blot: VHL-BirA(R118G)-HA baits or BirA alone expressed in HEK293 and HeLa cells, biotin in the medium; RIPA lysate; streptavidin-Sepharose capture; bound fraction blotted

Substance	binding [1]	binding [2]	binding [8]	also measured
T-complex protein 1 subunit epsilon (from UniProt P48643 1-541)	binds	binds	–	–
T-complex protein 1 subunit theta (from UniProt P50990 1-548)	binds	binds	–	–
Prefoldin subunit 5 (from UniProt Q99471 1-154)	–	binds	binds	binding [7]: binds weakly
Hsp40/Mas5 (from UniProt O74752 1-407)	–	–	–	binding [9]: binds
p42 ERK (ERK2) (from UniProt P28482 1-360)	–	–	no binding	binding [10]: no binding
GAPDH (from UniProt P04406 1-335)	–	–	no binding	binding [10]: no binding
Cdc48 ATPase (from UniProt Q9P3A7 1-809)	–	–	–	binding [9]: binds
Ssa2 Hsp70 (from UniProt O59855 1-647)	–	–	–	binding [9]: binds
p44 ERK (ERK1) (from UniProt P27361 1-379)	–	–	no binding	binding [10]: no binding
Hsp70/Ssa1 (from UniProt Q10265 1-644)	–	–	–	binding [9]: binds

The next lines start with results.

binding [1]	binding [2]	binding [8]	Substance	also measured
–	binds	binds	Prefoldin subunit 1 (from UniProt O60925 1-122)	binding (BirA(R118G)-HA [3]): no binding; binding [4]: binds; binding [5]: binds; binding (BirA(R118G)-HA [6]): no binding; binding [7]: binds weakly
–	binds	binds	Prefoldin subunit 3 (from UniProt P61758-1 1-197)	binding (BirA(R118G)-HA [3]): no binding; binding [4]: binds; binding [5]: binds; binding (BirA(R118G)-HA [6]): no binding; binding [7]: binds weakly
binds	binds	–	T-complex protein 1 subunit eta (from UniProt Q99832 1-543)	–
binds weakly	binds	binds	Prefoldin subunit 2 (from UniProt Q9UHV9 1-154)	binding (BirA(R118G)-HA [6]): no binding; binding [10]: binds weakly
no binding	binds	–	Prefoldin subunit 6 (from UniProt O15212 1-129)	–
no binding	binds	–	Prefoldin subunit 4 (from UniProt Q9NQP4 1-134)	–
